No constants are given. Whether binding was seen depends on the method and setting. Some results given as binding are weak or reduced against the parent protein; the word gives no strength.
Molecular target: FimA, structural subunit of the type I fimbrial rod (E. coli K-12) (UniProt P04128)
Test: AFM force spectroscopy; single type I fimbriae on bacteria immobilised on RNase B-coated glass, pulled through tip FimH by a 3M (RNase B)-coated AFM cantilever; constant-velocity and constant-force modes; room temperature

B1: FimA, structural subunit of the type I fimbrial rod (protein, UniProt P04128 24-182)
chain: AATTVNGGTVHFKGEVVNAACAVDAGSVDQTVQLGQVRTASLAQEGATSSAVGFNIQLNDCDTNVASKAAVAFLGTAIDAGHTNVLALQSSAAGSATNVGVQILDRTGAALTLDGATFSSETTLNNGTNTIPFQARYFATGAATPGAANADATFKVQYQ
For B1, the binding was “binds”.
